According to article doi:10.1101/2025.03.24.645041 (2025):
Changes are numbered by the printed parent chain. No constants are given. Whether binding was seen depends on the method and setting. For some of these results: Binding seen in cells or lysates may run through a third protein. Some results given as binding are weak or reduced against the parent protein; the word gives no strength. For some of these results: Where a sequence is shown, tags or fusion partners need not be part of it. Each block holds one binder with its values, some of them ahead of it.

Key:
[1] = molecular target: T1, Strep II-Myo2(1150–1567) (budding yeast) (UniProt P19524); experiment: SEC; Myo2 tail co-expressed in E. coli with MBP-fused Vac17 peptide; MBP affinity purification on amylose resin, MBP cleaved with TEV protease, then Superdex 200 Increase 10/300 GL; compared with apo Myo2 tail; both purified
T1 sequence: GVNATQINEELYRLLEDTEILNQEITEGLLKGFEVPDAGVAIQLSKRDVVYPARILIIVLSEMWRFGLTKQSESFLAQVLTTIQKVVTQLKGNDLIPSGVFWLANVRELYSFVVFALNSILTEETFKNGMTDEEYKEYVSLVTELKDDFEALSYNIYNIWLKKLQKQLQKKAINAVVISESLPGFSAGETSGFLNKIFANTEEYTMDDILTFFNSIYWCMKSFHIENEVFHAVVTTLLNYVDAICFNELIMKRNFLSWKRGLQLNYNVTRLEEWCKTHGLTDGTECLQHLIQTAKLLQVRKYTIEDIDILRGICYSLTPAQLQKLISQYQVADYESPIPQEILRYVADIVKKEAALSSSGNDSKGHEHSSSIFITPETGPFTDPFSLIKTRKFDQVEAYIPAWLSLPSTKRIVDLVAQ

[2] = molecular target: T1, Strep II-Myo2(1150–1567) (budding yeast); experiment: pull-down + SEC; Myo2 tail co-expressed with MBP-fused Vac17(H); first pulled down with amylose resin, treated with TEV protease, then pulled down with Strep-Tactin to isolate Myo2, then gel filtration; both purified
[3] = molecular target: T2, Strep II-Myo2 tail myo2(E1338R, K1408A, V1448A) triple mutant (budding yeast) (UniProt P19524); experiment: pull-down; Strep II-Myo2 tail (wild type or mutant) co-expressed with MBP or MBP-Vac17(H) in BL21(DE3); lysate incubated with StreptactinXT 4Flow beads 1 h at 4°C; washes with 50 mM Tris-HCl pH 8.0, 400 mM NaCl, 0.1% Tween, 5 mM βME; blot
T2 sequence: T1 sequence with E189R, K259A, V299A

[4] = molecular target: T3, Strep II-Myo2 tail myo2(K1408A, R1449E) double mutant (budding yeast) (UniProt P19524); experiment: as above
T3 sequence: T1 sequence with K259A, R300E

[5] = molecular target: T1, Strep II-Myo2(1150–1567) (budding yeast); experiment: as above
[6] = molecular target: T1, Strep II-Myo2(1150–1567) (budding yeast); experiment: cryo-EM structure; co-expressed and co-purified Vac17(H+MBD)-Myo2 tail complex (co-eluted as a single peak in gel filtration); 150 uM fluorinated octyl-maltoside; two reconstructions from one dataset (5.75 Å and 7.56 Å); both purified

Binder: TVPNEAPNDSPQSQSTRSSLGSFQPRPLKIIERQRLCMVTPSKPPKKS (domain or fragment, UniProt P25591 110-157) [Vac17(MBD) peptide, Vac17(110–157), MBP cleaved off]
binding [1]: binds

B1: Vac17(H) peptide, Vac17(1–109), MBP cleaved off (domain or fragment, UniProt P25591 1-109)
chain: MATQALEDITERLLIRSQEAILQLDLWIQRQQRSSICQTTDQESLDKLSQQYNQYMSQLNSLYVRSESVRDKLSKEQQRRLITEDNEHQRIEDLVREFQDITLRLNELA
binding [2]: binds
binding [1]: binds

Results, then the binder that gave them:

binding [3]: binds
binding [4]: binds
binding [5]: binds
B2: MBP-Vac17(H) (domain or fragment, UniProt P25591 1-109)
chain: B1 chain

binding [6]: binds
B3: Vac17(H+MBD) peptide, Vac17(1–157) (domain or fragment, UniProt P25591 1-157)
chain: MATQALEDITERLLIRSQEAILQLDLWIQRQQRSSICQTTDQESLDKLSQQYNQYMSQLNSLYVRSESVRDKLSKEQQRRLITEDNEHQRIEDLVREFQDITLRLNELATVPNEAPNDSPQSQSTRSSLGSFQPRPLKIIERQRLCMVTPSKPPKKS
